Test results: paper doi:10.1101/2024.10.19.619191
These are yes or no findings as the source states them, for the method shown. Binding seen in cells or lysates may run through a third protein. Some binding calls cover weakened binding; strength is not graded here.

Amino acid sequences for entries named in this document (tags omitted). Residues count along the entry.
UniProt P43220, residues 24-463: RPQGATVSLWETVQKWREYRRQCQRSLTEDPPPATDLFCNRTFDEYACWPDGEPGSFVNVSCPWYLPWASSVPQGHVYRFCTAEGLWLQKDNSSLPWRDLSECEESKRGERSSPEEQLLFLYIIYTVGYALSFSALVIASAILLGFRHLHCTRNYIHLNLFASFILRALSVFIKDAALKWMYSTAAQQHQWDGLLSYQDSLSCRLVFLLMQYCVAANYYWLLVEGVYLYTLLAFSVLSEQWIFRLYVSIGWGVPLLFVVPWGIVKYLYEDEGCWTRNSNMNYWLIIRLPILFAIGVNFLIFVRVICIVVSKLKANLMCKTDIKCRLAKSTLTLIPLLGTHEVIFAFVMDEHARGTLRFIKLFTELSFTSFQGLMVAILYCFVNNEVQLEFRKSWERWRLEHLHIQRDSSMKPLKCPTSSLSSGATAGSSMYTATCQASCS

Biological target: hGlp1r^WT-SmBiT (human) (UniProt P43220)
Assay: split reporter

LgBiT-β-arrestin 2 (from UniProt P32121 1-409)
binding: binds
